We go through one compound from US20240368224A1 (priority 2021, published 2024).

The amount remaining is what is left of the initial amount, in per cent.

This data set can be described thus: Serum stability assay. Conditions: 25% human serum in DPBS, 37° C., read-out: peptide remaining intact. In kind it is in vitro ADME.

Consider `C[C@@H](NC(=O)[C@H](Cc1ccccc1)NC(=O)[C@@H](CCCNC(=N)N)NC(=O)[C@H](CCCN)NC(=O)[C@@H]1CNC(=O)c2cc3cc(c2)C(=O)N[C@H](Cc2ccc4ccccc4c2)C(=O)N[C@@H](CO)C(=O)N[C@@H](CC(N)=O)C(=O)N[C@H](Cc2ccc4ccccc4c2)C(=O)N[C@@H](c2ccccc2)C(=O)N[C@@H](CCCCNC3=O)C(=O)N[C@H](Cc2ccccc2)C(=O)N[C@@H](CCC(N)=O)C(=O)N[C@H](CCCNC(=N)N)C(=O)N[C@@H](CCCNC(=N)N)C(=O)N1)C(N)=O` [Peptide B4-27], for which the share remaining at 24 h, 100 μM was ~85%.
